The experiment deals with T1, Nse2_(short) (budding yeast (Saccharomyces cerevisiae)) (UniProt P38632).
T1 sequence: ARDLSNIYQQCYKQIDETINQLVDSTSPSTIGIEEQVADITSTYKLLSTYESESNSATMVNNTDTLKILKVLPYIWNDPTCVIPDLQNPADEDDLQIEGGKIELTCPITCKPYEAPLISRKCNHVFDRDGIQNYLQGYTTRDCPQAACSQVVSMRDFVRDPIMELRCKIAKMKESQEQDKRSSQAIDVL
In words: crystal structure; shortNse2/Arm-Smc5, ΔN18 Smt3 and the A129K/K153R Ubc9-FL Smt3 thioester mimetic mixed equimolar (~7 µM each) in 20 mM Tris-HCl pH 8.0, 100 mM NaCl, 1 mM BME, concentrated to 9 mg/mL; hanging drop, 18 °C; 3.3 Å; both purified.

These are yes or no findings as the source states them, for the method shown. A result given as binding can be weak or reduced; the word gives no strength. Where a sequence is shown, tags or fusion partners need not be part of it.

Regarding “ΔN18 Smt3 (yeast (Saccharomyces cerevisiae)) (domain or fragment)”, the binding result is reported as “binds”.

The record behind these values is publication PMC8636563.
